# Laboratory results: patent US11311610B2, “Immune-modulating agents and uses therefor” (UNIVERSITY OF TECHNOLOGY SYDNEY, priority 2010, dated 2022)
# At least one peptide structure holds a part that was inferred or is arguable (an end, a ring closure or a residue). Where a SMILES comes first, the peptide text is derived from it.
# Assays:
# RAW264.7 cells = assay: Binding of FITC-conjugated LPS to RAW 264.7 cells (flow cytometry); format: cell-based, murine
# Method: (§1) FIG. 9 is a graphical representation showing LPS neutralization by FhHDM-1. The ability of FhHDM-1 (Δ), FhHDM-1 p1 (●) or FhHDM-1 p3 (▪) to bind to LPS was investigated by (A) incubating a range of concentrations of proteins (0.02-2 μg/well) in an LPS-coated (100 ng/well) microtitre plate. Bound peptides were detected by ELISA using rabbit anti-FhHDM-1 as a primary antibody. (B) FhHDM-1 or derived peptides (0.1 μg) were incubated in the presence of LPS (0.05-5 μg/well) and bound peptides measured as described above. Binding of peptides to the LPS-immobilized plates was expressed as a percentage of that measured for 2 μg (for panel A) or 0.1 μg (for panel B) of FhHDM-1. Data are the means±SD from three separate experiments. […] Interaction of LBP with LPS was measured by ELISA using an anti-LBP primary antibody and expressed as a percentage of that detected for 10% sera in the absence of added peptides. […] Statistical significance was calculated using the student t-test and represent a comparison to the binding of 10% sera to immobilized LPS. […] The binding of FITC-LPS was analyzed by flow cytometry. LPS binding was expressed as a percentage of the mean fluorescence obtained for the addition of FITC-LPS to cells in the absence of peptides. […] Two hours later, sera was collected and serum levels of TNF and (F) IL-10 measured by ELISA. […]
# LPS-binding ELISA = assay: LPS-binding ELISA; parameters: species or system E. coli
# Method: as §1
# [1] = test system: ATPase activity associated with lysosomal membranes (equivalent to vATPase activity); assay: ATPase activity of enriched lysosomal membranes; format: biochemical, murine; conditions: lysosomal membranes from RAW264.7 macrophage lysates
# Method: FIG. 17 is a graphical representation showing that FhHDM-1 P3 inhibits ATPase activity associated with lysosomal membranes in a concentration-dependent manner. A cellular fraction enriched for lysosomes was prepared by sequential centrifugation of RAW264.7 macrophage lysates. The lysosomal membranes were recovered and assayed (with or without HDM peptides) for ATPase activity using a commercially available kit.
# FIG. 18 is a diagrammatic representation showing a sequence alignment of various synthetic HDM peptides. The amphipathic helix is shaded in grey as are the mutated residues in peptides nonHP and 2Pro. NonHP is a variant of FhHDM-1 P3 in which the hydrophobic face of the FhHDM-1 amphipathic helix was removed. 2Pro is a variant of FhHDM-1 P3 in which two prolines substitutions were incorporated to disrupt the alpha-helix. Cons_p3 is a consensus peptide corresponding to various FhHDM-1 homologs. All peptides in the alignment were tested for their ability to inhibit the ATPase activity associated with enriched lysosomal membranes (prepared from RAW macrophages). Those with inhibitory activity are shown in bold text.
# A cellular fraction enriched for lysosomes was prepared by sequential centrifugation of RAW264.7 macrophage lysates. […]
structure (smiles),measurement,setting,value
CC[C@H](C)[C@H](NC(=O)[C@H](CCCCN)NC(=O)[C@H](CCC(=O)O)NC(=O)CNC(=O)[C@H](CC(C)C)NC(=O)[C@H](CC(N)=O)NC(=O)[C@H](CC(=O)O)NC(=O)[C@H](CCCCN)NC(=O)[C@H](C)NC(=O)[C@H](CC(C)C)NC(=O)[C@H](Cc1ccc(O)cc1)NC(=O)[C@H](C)NC(=O)[C@H](CCSC)NC(=O)[C@H](C)N)C(=O)N[C@H](C(=O)N[C@@H](CCC(=O)O)C(=O)N[C@H](C(=O)N[C@H](C(=O)N[C@H](C(=O)N[C@H](C(=O)N[C@@H](CC(C)C)C(=O)N[C@@H](CC(C)C)C(=O)N[C@@H](CC(N)=O)C(=O)N[C@@H](CCCNC(=N)N)C(=O)N[C@@H](CC(C)C)C(=O)N[C@H](C(=O)N[C@@H](CC(=O)O)C(=O)N[C@@H](CCCNC(=N)N)C(=O)N[C@@H](CC(C)C)C(=O)N[C@@H](CCC(=O)O)C(=O)N[C@@H](CCCCN)C(=O)N[C@@H](Cc1ccc(O)cc1)C(=O)N[C@@H](C)C(=O)NCC(=O)O)[C@@H](C)O)[C@@H](C)CC)[C@@H](C)O)[C@@H](C)CC)C(C)C)[C@@H](C)O [FhHDM-1 p3] (H-AMAYLAKDNLGEKITEVITILLNRLTDRLEKYAG-OH),binding of FITC-LPS to RAW264.7 macrophages (cell surface labelling),"RAW264.7 cells; 5 μg/mL, 4° C.",almost abolishing cell surface labelling
same,binding of FITC-LPS to RAW264.7 macrophages,"RAW264.7 cells; 0.1-10 μg/mL, 20 min at 4° C., flow cytometry",considerably reduced
same,binding to free LPS in solution (competition with immobilised LPS),LPS-binding ELISA; 0.1 μg/well with LPS 0.05-5 μg/well,bound to free LPS in solution
same,binding to immobilised LPS,LPS-binding ELISA; 0.02-2 μg/well on LPS-coated plate (100 ng/well),bound to LPS in a concentration-dependent manner
same,ATPase activity associated with lysosomal membranes,[1],inhibited ATPase activity associated with lysosomal membranes (equivalent to vATPase activity) in a concentration-dependent manner
